Data: article PMC4733052, “Heart of glass anchors Rasip1 at endothelial cell-cell junctions to support vascular integrity” (eLife, 2016)
These are yes or no findings as the source states them, for the method shown. For some of these results: Binding seen in cells or lysates may run through a third protein. Some results given as binding are weak or reduced against the parent protein; the word gives no strength. Sequences can lack the tags named with a protein. Blank lines part the entries; values can stand above or below the binder they belong to.

Amino acid sequences for entries named in this document (tags omitted). Residues count along the entry.
UniProt P08514, residues 1020-1039: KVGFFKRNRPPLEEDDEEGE

Experiments:
[1] = biological target: T1, FLAG-tagged full-length murine HEG1 (mouse) (UniProt E9Q7X6); experiment: co-IP; HEK293T or U2OS transfected (U2OS also infected with shCtrl or shHEG1#1; in one panel 5 µM purified HEG1 tail peptide added), clarified lysate on anti-FLAG G1 Affinity Resin, 4°C 3 hours; Western blot
T1 sequence: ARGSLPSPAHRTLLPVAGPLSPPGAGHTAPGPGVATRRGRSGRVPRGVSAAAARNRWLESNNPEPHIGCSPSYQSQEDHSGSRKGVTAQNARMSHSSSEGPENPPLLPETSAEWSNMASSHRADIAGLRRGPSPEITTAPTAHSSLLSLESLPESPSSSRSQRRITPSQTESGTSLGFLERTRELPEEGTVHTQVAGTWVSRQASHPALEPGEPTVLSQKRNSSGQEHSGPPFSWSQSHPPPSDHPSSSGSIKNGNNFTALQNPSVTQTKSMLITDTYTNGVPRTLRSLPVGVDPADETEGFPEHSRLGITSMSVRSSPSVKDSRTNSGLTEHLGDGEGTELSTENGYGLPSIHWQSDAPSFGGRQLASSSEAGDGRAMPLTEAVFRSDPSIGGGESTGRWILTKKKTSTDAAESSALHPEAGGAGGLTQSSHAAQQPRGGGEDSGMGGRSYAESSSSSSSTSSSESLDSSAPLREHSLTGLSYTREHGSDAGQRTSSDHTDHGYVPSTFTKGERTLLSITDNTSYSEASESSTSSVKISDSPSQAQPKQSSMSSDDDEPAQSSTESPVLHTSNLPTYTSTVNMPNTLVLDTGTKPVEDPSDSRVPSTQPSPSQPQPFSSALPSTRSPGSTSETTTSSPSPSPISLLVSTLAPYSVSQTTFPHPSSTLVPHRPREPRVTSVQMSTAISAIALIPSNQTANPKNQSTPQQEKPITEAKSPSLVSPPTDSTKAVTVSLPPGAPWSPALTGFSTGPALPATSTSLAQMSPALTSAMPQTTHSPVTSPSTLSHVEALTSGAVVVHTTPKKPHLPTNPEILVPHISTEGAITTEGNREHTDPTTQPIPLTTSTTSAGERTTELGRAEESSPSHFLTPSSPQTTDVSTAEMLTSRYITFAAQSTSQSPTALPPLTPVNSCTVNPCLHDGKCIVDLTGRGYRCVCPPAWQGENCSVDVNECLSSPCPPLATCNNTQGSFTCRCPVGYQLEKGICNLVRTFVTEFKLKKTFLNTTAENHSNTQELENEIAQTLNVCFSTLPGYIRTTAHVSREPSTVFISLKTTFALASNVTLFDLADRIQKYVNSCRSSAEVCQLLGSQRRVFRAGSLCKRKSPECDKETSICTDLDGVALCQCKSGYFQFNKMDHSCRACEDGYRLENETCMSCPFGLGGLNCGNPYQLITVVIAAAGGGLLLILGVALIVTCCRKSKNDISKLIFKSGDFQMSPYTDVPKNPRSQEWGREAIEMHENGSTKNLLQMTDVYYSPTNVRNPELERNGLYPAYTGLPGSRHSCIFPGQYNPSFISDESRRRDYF

[2] = biological target: T2, FLAG-tagged murine HEG1(∆1283-1291) (mouse) (UniProt E9Q7X6); experiment: as above
T2 sequence: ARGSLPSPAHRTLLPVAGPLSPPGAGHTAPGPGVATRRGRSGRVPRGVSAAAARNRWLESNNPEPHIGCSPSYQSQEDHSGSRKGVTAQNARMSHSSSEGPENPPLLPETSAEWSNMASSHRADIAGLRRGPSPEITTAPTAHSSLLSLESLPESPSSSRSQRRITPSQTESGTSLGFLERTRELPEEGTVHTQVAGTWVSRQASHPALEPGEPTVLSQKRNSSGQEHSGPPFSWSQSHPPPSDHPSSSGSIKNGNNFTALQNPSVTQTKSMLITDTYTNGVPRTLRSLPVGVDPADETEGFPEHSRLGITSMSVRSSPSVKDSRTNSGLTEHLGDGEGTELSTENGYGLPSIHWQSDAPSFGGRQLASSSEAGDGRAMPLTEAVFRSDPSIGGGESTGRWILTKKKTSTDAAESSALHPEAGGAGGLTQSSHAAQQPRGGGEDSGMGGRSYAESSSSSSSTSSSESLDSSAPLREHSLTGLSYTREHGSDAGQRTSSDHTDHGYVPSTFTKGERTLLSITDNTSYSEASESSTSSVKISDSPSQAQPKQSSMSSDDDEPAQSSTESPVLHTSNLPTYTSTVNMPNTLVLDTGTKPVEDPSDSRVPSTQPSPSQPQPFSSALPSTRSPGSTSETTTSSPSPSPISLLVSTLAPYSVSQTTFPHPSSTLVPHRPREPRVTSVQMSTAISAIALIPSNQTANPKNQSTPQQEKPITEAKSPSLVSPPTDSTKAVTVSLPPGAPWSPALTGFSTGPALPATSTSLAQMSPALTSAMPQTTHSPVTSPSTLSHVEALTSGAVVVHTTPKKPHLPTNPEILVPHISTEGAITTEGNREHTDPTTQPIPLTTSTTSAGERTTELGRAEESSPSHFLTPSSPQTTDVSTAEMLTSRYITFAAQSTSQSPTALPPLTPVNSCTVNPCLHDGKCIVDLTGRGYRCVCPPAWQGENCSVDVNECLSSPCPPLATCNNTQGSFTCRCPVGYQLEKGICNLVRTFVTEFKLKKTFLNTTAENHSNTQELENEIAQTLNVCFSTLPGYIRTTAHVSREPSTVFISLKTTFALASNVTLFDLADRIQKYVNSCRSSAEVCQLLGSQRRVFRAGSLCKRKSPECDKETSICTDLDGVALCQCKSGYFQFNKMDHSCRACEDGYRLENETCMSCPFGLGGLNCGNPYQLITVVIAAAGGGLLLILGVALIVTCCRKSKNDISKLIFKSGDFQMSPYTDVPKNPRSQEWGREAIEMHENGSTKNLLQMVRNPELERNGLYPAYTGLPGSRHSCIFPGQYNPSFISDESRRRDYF

[3] = biological target: αIIb integrin cytoplasmic tail (UniProt P08514); experiment: pull-down; His-MBP-Rasip1 central domain at 2.5 μM incubated with HEG1 matrices in PBS with 0.1% Triton X-100, 0.5 mM EDTA, 2 mM DTT, 1 mM Maltose, 6°C 1 hour; SDS-PAGE, Coomassie-blue; both purified
[4] = biological target: T3, full-length FLAG-tagged Rasip1 (U2OS) (human) (UniProt Q5U651); experiment: co-IP; HEK293T or U2OS transfected (U2OS also infected with shCtrl or shHEG1#1; in one panel 5 µM purified HEG1 tail peptide added), clarified lysate on anti-FLAG G1 Affinity Resin, 4°C 3 hours; Western blot
T3 sequence: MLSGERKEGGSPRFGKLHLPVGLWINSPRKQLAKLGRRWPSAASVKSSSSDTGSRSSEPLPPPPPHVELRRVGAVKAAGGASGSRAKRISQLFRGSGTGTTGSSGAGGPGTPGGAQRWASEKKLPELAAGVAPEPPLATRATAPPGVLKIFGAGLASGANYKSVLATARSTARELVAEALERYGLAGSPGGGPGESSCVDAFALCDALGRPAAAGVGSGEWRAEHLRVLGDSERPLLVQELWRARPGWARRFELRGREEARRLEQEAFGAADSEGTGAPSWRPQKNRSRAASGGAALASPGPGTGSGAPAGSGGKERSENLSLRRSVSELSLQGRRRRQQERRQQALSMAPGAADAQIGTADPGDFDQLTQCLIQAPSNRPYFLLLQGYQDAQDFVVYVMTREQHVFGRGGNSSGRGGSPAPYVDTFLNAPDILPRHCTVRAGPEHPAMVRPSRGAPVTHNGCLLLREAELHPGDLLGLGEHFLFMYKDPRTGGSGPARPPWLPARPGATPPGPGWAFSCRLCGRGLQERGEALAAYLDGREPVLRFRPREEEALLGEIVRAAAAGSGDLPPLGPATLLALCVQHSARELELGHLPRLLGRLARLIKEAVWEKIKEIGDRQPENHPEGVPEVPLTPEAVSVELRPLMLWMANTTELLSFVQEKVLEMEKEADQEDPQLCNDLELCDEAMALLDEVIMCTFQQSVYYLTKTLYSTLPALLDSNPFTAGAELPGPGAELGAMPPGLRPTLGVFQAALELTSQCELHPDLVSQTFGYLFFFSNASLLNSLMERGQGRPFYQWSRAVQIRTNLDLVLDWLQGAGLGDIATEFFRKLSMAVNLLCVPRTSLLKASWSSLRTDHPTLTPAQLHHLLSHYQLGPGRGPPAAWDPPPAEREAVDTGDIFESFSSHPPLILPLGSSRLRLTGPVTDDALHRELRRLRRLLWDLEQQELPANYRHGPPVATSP

binding [1]: binds | binding [2]: no binding
B1: GFP-tagged full-length Rasip1 (HEK293T) (protein, UniProt Q5U651 1-963)
chain: T3 sequence

binding [3]: no binding (tested: 2.5 μM)
B2: recombinant His-MBP-fusion Rasip1 central domain (residues 266-550) (protein)
chain: EAFGAADSEGTGAPSWRPQKNRSRAASGGAALASPGPGTGSGAPAGSGGKERSENLSLRRSVSELSLQGRRRRQQERRQQALSMAPGAADAQIGTADPGDFDQLTQCLIQAPSNRPYFLLLQGYQDAQDFVVYVMTREQHVFGRGGNSSGRGGSPAPYVDTFLNAPDILPRHCTVRAGPEHPAMVRPSRGAPVTHNGCLLLREAELHPGDLLGLGEHFLFMYKDPRTGGSGPARPPWLPARPGATPPGPGWAFSCRLCGRGLQERGEALAAYLDGREPVLRFRPR

binding [4]: binds
B3: mCherry-HA-Radil (protein, UniProt Q96JH8 1-1075)
chain: MFYGTHFIMSPPTKSKLKRQSQLLSSMLSRTLSYKYRDLDSTFSSLGASDDPAELSTQLSAPGVLKVFGDSVCTGTHYKSVLATGTSSARELVKEALERYALDPRQAGQYVLCDVVGQAGDAGQRWQARCFRVFGDSEKPLLIQELWKPREGLSRRFELRKRSDVEELAAKEVDTITAGINAQARRLQRSRAKGTPTPALGDARSSPPPRLRRTVSETSLSPVNALPAAAQGPEEPGPDAMRYSLYQSPHLLLLQGYSQQHDSLVYVLNRDRHTVGQRTPSSKPSISLSAPDILPLHCTIRRQPLPDSGQAAGRLVLEPIPGAHISVNFSEVGHRTVVLHHGDLLSLGLYYLLLFKDPAQAQPLPARALARLRAVPQSCRLCGAALGARGAASPTQAALPRRQQLLLEFEPHLEDTLLQRIMTLIEPGGDDHKLTPAFLLCLCIQHSATHFQPGTFGQLLLKIARLIRETVWEKTKELAEKQAQLQEPISLASCAMADLVPDLQPILFWMSNSIELLYFIQQKCPLYMQSMEEQLDITGSKESLFSCTLTASEEAMAVLEEVVLYAFQQCVYYVSKSLYICLPALLECPPFQTERRESWSSAPELPEELRRVVSVYQAALDLLRQLQVHPEVASQMLAYLFFFSGTLLLNQLLDRGPSLSCFHWPRGVQACARLQQLLEWMRSAGFGAAGEHFFQKLSCTLNLLATPRAQLIQMSWTALRAAFPALSPAQLHRLLTHYQLASAMGPMSTWEPGAQDSPEAFRSEDVLESYENPPPIVLPSDGFQVDLEANCLDDSIYQHLLYVRHFLWGLRSRASPGSPGRPGSGASQPVCPEGMHHVVLDGHLEAPSCPLAPRDPGPAAREVAPERTLPLRGAPWAQAPPGRQPSRGGSQAGPPHTDSSCLLTPPSTPLGPEPGDPDWPESGGPCGKALPERQRNGLSGLRGAAPEGDSAALAEESPPAPSSRSSSTEDFCYVFTVELERGPSGLGMGLIDGMHTHLGAPGLYIQTLLPGSPAAADGRLSLGDRILEVNGSSLLGLGYLRAVDLIRHGGKKMRFLVAKSDVETAKKIHFRTPPL
